{"sequences": {"note": "The chains behind the UniProt entries cited, without tags or fusion partners. Where a name states a change or a piece, a line headed by the entry shows the natural chain unless it says otherwise.", "UniProt Q9UNA4": "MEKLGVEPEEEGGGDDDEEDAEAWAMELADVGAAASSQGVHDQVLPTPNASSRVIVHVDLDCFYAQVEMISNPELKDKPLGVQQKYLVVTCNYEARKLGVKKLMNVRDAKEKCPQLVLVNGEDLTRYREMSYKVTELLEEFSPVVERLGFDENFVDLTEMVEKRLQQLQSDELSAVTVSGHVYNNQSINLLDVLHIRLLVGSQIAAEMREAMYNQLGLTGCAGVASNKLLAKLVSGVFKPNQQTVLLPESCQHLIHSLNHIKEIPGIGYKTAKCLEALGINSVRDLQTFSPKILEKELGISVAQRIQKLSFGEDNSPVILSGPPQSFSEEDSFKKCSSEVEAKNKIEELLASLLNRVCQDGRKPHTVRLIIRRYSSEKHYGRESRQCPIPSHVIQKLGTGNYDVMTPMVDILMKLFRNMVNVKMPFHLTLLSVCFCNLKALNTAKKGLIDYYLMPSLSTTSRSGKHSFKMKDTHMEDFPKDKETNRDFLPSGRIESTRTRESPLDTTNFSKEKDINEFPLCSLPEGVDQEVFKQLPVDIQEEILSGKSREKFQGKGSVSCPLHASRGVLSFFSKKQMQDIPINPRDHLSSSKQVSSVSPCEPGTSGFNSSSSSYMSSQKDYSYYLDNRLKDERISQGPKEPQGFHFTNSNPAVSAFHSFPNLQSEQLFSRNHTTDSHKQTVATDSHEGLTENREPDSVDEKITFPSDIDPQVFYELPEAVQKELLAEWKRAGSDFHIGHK"}, "source": "PubChem BioAssay AID588590", "about": "(National Center for Advancing Translational Sciences (NCATS), 2011)", "note": "Out of some 390,000 compounds screened, about 4,000 (1%) were called active. Inconclusive means that the source gave no clear call. Such entries were picked first, then a sample of the others. Calls follow the shape of the dose curve; as a rule, active = well fitted inhibition curve with a large enough effect; inconclusive = small, poorly fitted or top-dose-only effect, or another doubt; inactive = no such curve, though single readings can be large or run the other way. A potency beside an inconclusive call is a rough fit, not a confirmed value. Potency is read from the fitted curve at half-maximal effect.", "data": [{"molecular_target": "DNA polymerase iota (Homo sapiens) (UniProt Q9UNA4)", "assay": "qHTS for Inhibitors of Polymerase Iota", "conditions": "Pol iota fluorescent replication assay, 10 min; series mostly up to 115 µM; activity, negative = inhibition: at the top concentration", "outline": "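Pol iota at 10 nM preincubated 15 min with compounds at room temperature; reaction started with fluorescent substrate, 50 nM final. Fluorescence read kinetically at 0 and 10 min; buffer-only wells as negative control.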", "values": [{"compound": "CC(C)c1nc(SCC(=O)N2CCCC2)c2ccccc2n1", "activity, negative = inhibition": "inactive: -6.64%"}, {"compound": "CCOc1cc(/C=C2/C(=O)N(c3ccccc3)N=C2C)ccc1OC(=O)c1ccco1", "Potency": "active: 1 µM"}, {"compound": "COCCNc1nc(-c2cc(C)c(C)cc2C)cs1", "activity, negative = inhibition": "inactive: 18.9%"}, {"compound": "Cc1ccc(C)c(Nc2nnc(-c3ccc(C)c(S(=O)(=O)N4CCCCC4)c3)c3ccccc23)c1", "Potency": "active: 89.1 µM"}, {"compound": "COc1ccc(N2CCN(C(=O)c3nn(-c4ccc(C)cc4)c(=O)n(C)c3=O)CC2)cc1", "Potency": "inconclusive: 100 µM [inhibitor, partial curve, poor fit]"}, {"compound": "Cc1nn(Cc2c(Cl)cccc2Cl)c(Cl)c1/C=N/NC(=O)c1cccnc1", "Potency": "inconclusive: 39.8 µM [inhibitor, full curve]"}, {"compound": "Cc1cc(Br)c(OCC(=O)NN)c2c1CCC2", "Potency": "inconclusive: 39.8 µM [inhibitor, single point]"}, {"compound": "Cc1cc(O)ccc1C1(c2ccc(O)cc2C)OC(=O)c2ccccc21", "activity, negative = inhibition": "inactive: 4.37%"}, {"compound": "N#CCC(=O)Nc1ccc(C(=O)OCC(=O)N2CCN(C(=O)c3ccco3)CC2)cc1", "Potency": "active: 44.7 µM"}, {"compound": "C=C1CCN(C(CC(C)C)C(=O)NCc2ccc(Cl)c(Cl)c2)S(=O)(=O)c2ccccc21", "note": "(configuration not stated)", "Potency": "inconclusive: 100 µM [inhibitor, single point]"}, {"compound": "Cc1occc1-c1nnc(SCC(=O)Nc2nccs2)n1CCc1ccccc1", "Potency": "inconclusive: 7.08 µM [inhibitor, single point]"}, {"compound": "N#CC1C=Cc2c(ccc3ccccc23)N1C(=O)c1ccccc1", "note": "(configuration not stated)", "activity, negative = inhibition": "inactive: 15.6%"}, {"compound": "O=C(/C=C/c1ccccc1F)c1ccoc1", "Potency": "inconclusive: 20 µM [inhibitor, partial curve, poor fit]"}, {"compound": "CCCCNc1c(-c2ccc(-c3cccc(Cl)c3)cc2)nc2ccccn12", "Potency": "inconclusive: 1.41 µM [inhibitor, full curve, poor fit]"}, {"compound": "CC(=O)c1ccc(Sc2nnnn2-c2ccccc2)c([N+](=O)[O-])c1", "activity, negative = inhibition": "inactive: -11.8%"}, {"compound": "O=C(O)c1ccc2nc(-c3ccco3)c(-c3ccco3)nc2c1", "Potency": "inconclusive: 3.55 µM [inhibitor, full curve, poor fit]"}, {"compound": "CC(C)N(CC#CCC(O)(c1ccccc1)C1CCCC1)CCO", "note": "(configuration not stated)", "Potency": "inconclusive: 20 µM [inhibitor, single point]"}, {"compound": "CC(=O)c1cccc(NC(=O)c2ccc3nc(C(C)C)oc3c2)c1", "activity, negative = inhibition": "inactive: 8.91%"}, {"compound": "COc1ccc(C2=Nn3c(nnc3-c3ccccc3Cl)SC2)cc1OC1CCOC1", "note": "(configuration not stated)", "activity, negative = inhibition": "inactive: -12.5%"}, {"compound": "Cc1ccc(C(=O)CC(C(=O)O)n2cnc([N+](=O)[O-])n2)cc1", "note": "(configuration not stated)", "Potency": "inconclusive: 15.8 µM [inhibitor, partial curve, poor fit]"}, {"compound": "Cc1cc(C(=O)O)c(CSCc2cc(C(=O)O)oc2C)o1", "Potency": "inconclusive: 28.2 µM [inhibitor, partial curve, poor fit]"}, {"compound": "Clc1ncc(C#Cc2ccccc2)c2ncncc12", "Potency": "inconclusive: 1.41 µM [inhibitor, full curve, poor fit]"}, {"compound": "O=C(CN1C(=O)S/C(=C\\c2ccccc2)C1=O)NNC(=O)c1ccccc1O", "Potency": "inconclusive: 10 µM [inhibitor, partial curve, poor fit]"}, {"compound": "CCn1ccnc1CC1COc2ccccc2O1", "note": "(configuration not stated)", "Potency": "inconclusive: 31.6 µM [inhibitor, partial curve, poor fit]"}, {"compound": "Cc1cccc(OCC(O)CN2CCN(c3ccccn3)CC2)c1C", "note": "(configuration not stated)", "Potency": "inconclusive: 44.7 µM [inhibitor, single point]"}, {"compound": "O=c1c2ccccc2nnn1Cc1ccccc1Cl", "Potency": "inconclusive: 2.51 µM [inhibitor, partial curve, poor fit]"}, {"compound": "C=C(C)CSc1nc2c(c(=O)[nH]c(=O)n2C)n1Cc1ccccc1", "Potency": "inconclusive: 50.1 µM [inhibitor, partial curve, poor fit]"}, {"compound": "CC[n+]1c(/C=C/Nc2ccccc2)sc2ccccc21", "Potency": "inconclusive: 28.2 µM [inhibitor, full curve, poor fit]"}, {"compound": "Cc1cc(-c2nnc(SCC(=O)Nc3ccc(C)c(C)c3)n2N)n[nH]1", "activity, negative = inhibition": "inactive: 47.2%"}, {"compound": "O=C(O)CC(NC(=O)C(c1ccccc1)c1ccccc1)c1cccc([N+](=O)[O-])c1", "note": "(configuration not stated)", "Potency": "inconclusive: 50.1 µM [inhibitor, partial curve, poor fit]"}, {"compound": "O=C(NNc1ccc(O)cc1)c1ccc(Br)cc1", "Potency": "inconclusive: 39.8 µM [inhibitor, full curve]"}, {"compound": "CCc1c(C)nc(SCC(=O)Nc2cccc(Br)c2)[nH]c1=O", "Potency": "inconclusive: 22.4 µM [inhibitor, partial curve, poor fit]"}, {"compound": "CCOC(=O)c1c(NC(=O)CSc2nnc(C)s2)sc2c1CCN(C)C2", "Potency": "active: 11.2 µM"}, {"compound": "OC12CC3C[C@H](C1)C(N1CCOCC1)[C@@H](C3)C2", "note": "(some centres not stated)", "Potency": "inconclusive: 79.4 µM [inhibitor, partial curve]"}, {"compound": "CCOC(=O)c1nn(-c2ccccc2)c(=O)c2c(N)scc12", "Potency": "inconclusive: 3.16 µM [inhibitor, full curve, poor fit]"}, {"compound": "O=C(NC1CC1)C1CCN(S(=O)(=O)c2cc([N+](=O)[O-])ccc2Cl)CC1", "Potency": "active: 10 µM"}, {"compound": "Cn1nnc(NC(=S)NC(=O)c2ccc(-c3ccc(Br)cc3)o2)n1", "Potency": "inconclusive: 25.1 µM [inhibitor, single point]"}, {"compound": "CCc1ccccc1NC(=O)CCS(=O)(=O)c1cccc2nonc12", "activity, negative = inhibition": "inactive: -12.3%"}, {"compound": "COc1cccc(NC(=O)CN(C)C(=O)CSCc2nc3scc(-c4cccs4)c3c(=O)[nH]2)c1", "Potency": "inconclusive: 11.2 µM [inhibitor, partial curve, poor fit]"}, {"compound": "Cc1ccc(NC(=O)CN(C)C(=O)c2cccc(-n3cccc3)c2)cc1", "Potency": "active: 8.91 µM"}, {"compound": "COc1cccc(CNC(=O)CCc2c(C)c3cc4c(C)coc4c(C)c3oc2=O)c1", "Potency": "inconclusive: 17.8 µM [inhibitor, partial curve, poor fit]"}, {"compound": "CCC1CCCCN1CCNS(=O)(=O)c1ccc2c(c1)oc(=O)n2C", "note": "(configuration not stated)", "Potency": "inconclusive: 7.94 µM [inhibitor, single point]"}, {"compound": "CCOC(=O)C1(C)NC(c2cccc(C)c2)C2C(=O)N(c3ccccc3)C(=O)C21", "note": "(configuration not stated)", "Potency": "inconclusive: 89.1 µM [inhibitor, single point]"}, {"compound": "COc1cc(OC)c(OC)cc1/C=N/NC(=O)c1cc(-c2cccn2C)n[nH]1", "activity, negative = inhibition": "inactive: 17.8%"}, {"compound": "O=C(Nc1cccc(-n2cnnn2)c1)c1ccc(OC(F)(F)F)cc1", "Potency": "inconclusive: 89.1 µM [inhibitor, partial curve, poor fit]"}, {"compound": "COc1ccc(N(CC(=O)N2CCN(c3ccccc3F)CC2)S(=O)(=O)c2c(C)n[nH]c2C)cc1", "Potency": "inconclusive: 2.82 µM [inhibitor, partial curve, poor fit]"}, {"compound": "Cc1cc(C)c(S(=O)(=O)/N=C2\\C=CC(=O)C(Cl)=C2)c(C)c1", "Potency": "inconclusive: 17.8 µM [inhibitor, full curve, poor fit]"}, {"compound": "Cc1ccc(-c2c(C#N)c(N)nc3c2CCCCC3)o1", "activity, negative = inhibition": "inactive: -7.72%"}, {"compound": "CC1(C)Cc2ccccc2/C(=C/C(=O)N2CCCCCC2)N1", "Potency": "inconclusive: 39.8 µM [inhibitor, partial curve]"}, {"compound": "O=C(NCC(c1ccc2c(c1)OCO2)N1CCOCC1)c1c(F)cccc1F", "note": "(configuration not stated)", "Potency": "inconclusive: 79.4 µM [inhibitor, partial curve, poor fit]"}, {"compound": "O=C(NC1CCCCC1)N1CCc2ccccc21", "Potency": "inconclusive: 10 µM [inhibitor, single point]"}, {"compound": "COc1ccc(N2CCN(C(=O)CSc3nc4cc(OC)c(OC)cc4cc3C#N)CC2)cc1", "Potency": "inconclusive: 28.2 µM [inhibitor, partial curve]"}, {"compound": "CC(=O)NC1C(=O)N(CCN2CCOCC2)c2ccc(Cl)cc21", "note": "(configuration not stated)", "Potency": "inconclusive: 1.26 µM [inhibitor, full curve, poor fit]"}, {"compound": "CCOC(=O)C12CC1/C(=N/O)c1ccccc1O2", "note": "(configuration not stated)", "activity, negative = inhibition": "inactive: -1.42% [at 58.9 µM]"}, {"compound": "CC(C)(Oc1ccc(Cl)cc1)C(=O)Nc1nc2ccc(S(C)(=O)=O)cc2s1", "activity, negative = inhibition": "inactive: -14%"}, {"compound": "CCN(CC)CCC(c1cc(OC)c(OC)c(OC)c1)c1c(OC)cc(OC)c2ccc(=O)oc12", "note": "(configuration not stated)", "Potency": "inconclusive: 39.8 µM [inhibitor, single point]"}, {"compound": "CCC(=O)N1CCc2cc(Br)cc(S(=O)(=O)CCC(=O)N(CC)Cc3ccccc3)c21", "activity, negative = inhibition": "inactive: -21.6%"}, {"compound": "Cc1nc2ccccc2nc(=O)c1NNc1ccc([N+](=O)[O-])cc1", "Potency": "inconclusive: 25.1 µM [inhibitor, full curve, poor fit]"}, {"compound": "NC1=CC(=O)C(=O)c2ccccc21", "Potency": "inconclusive: 20 µM [inhibitor, partial curve, poor fit]"}, {"compound": "CC(=O)N1CCc2cc(CNS(=O)(=O)c3ccc(Cl)s3)ccc21", "activity, negative = inhibition": "inactive: -1.96%"}, {"compound": "NC(=N\\N=Cc1ccco1)/C(N)=N/N=Cc1ccco1", "Potency": "inconclusive: 17.8 µM [inhibitor, full curve, poor fit]"}, {"compound": "CC(=O)/C(N=Nc1ccc(C(=O)O)cc1[N+](=O)[O-])=C(\\C)O", "Potency": "active: 50.1 µM"}, {"compound": "CC(C)C[C@@H]1NC(=O)[C@H](Cc2ccc(O)cc2)NC(=O)c2cc([N+](=O)[O-])cc(I)c2NCCC[C@@H](C(N)=O)NC1=O", "Potency": "inconclusive: 50.1 µM [inhibitor, single point]"}, {"compound": "COc1ccc(OC)c(-c2cc(C(=O)Nc3ccccc3C(N)=O)c3ccccc3n2)c1", "activity, negative = inhibition": "inactive: -19.1%"}, {"compound": "Cc1ccc(NC(=O)c2nc(S(C)(=O)=O)ncc2N(Cc2ccco2)Cc2ccco2)cc1C", "activity, negative = inhibition": "inactive: 19.9%"}, {"compound": "Cc1ccc(N=Nc2c(=O)[nH]n3c(C)cc(C)nc23)cc1", "Potency": "inconclusive: 25.1 µM [inhibitor, partial curve, poor fit]"}, {"compound": "COc1cc(CN2CCCC(CO)(Cc3cccc(Cl)c3)C2)cc(OC)c1O", "note": "(configuration not stated)", "Potency": "inconclusive: 70.8 µM [inhibitor, partial curve, poor fit]"}]}]}
